Data: patent US9926581B2, “Fagopyritol synthase genes and uses thereof” (Cornell Research Foundation, Inc., priority 2002, dated 2018)

Test system: soybean explants
Assay: Soybean explant feeding 3 days with 50 mM cyclitol in 1% sucrose, slow drying time course, soluble carbohydrates in axis, cotyledon, seed coat and leaf
[1] = 3 days transport of sucrose (1%) and D-pinitol (50 mM), after 4 days slow drying, Rep 1
[2] = 3 days transport of sucrose (1%) and D-pinitol (50 mM), after 4 days slow drying, Rep 2
[3] = 3 days transport of sucrose (1%) and D-pinitol (50 mM), after 14 days slow drying, Rep 1
[4] = 3 days transport of sucrose (1%) and D-pinitol (50 mM), after 14 days slow drying, Rep 2
[5] = 3 days transport of sucrose (1%) and D-pinitol (50 mM), before slow drying, Rep 1
[6] = 3 days transport of sucrose (1%) and D-pinitol (50 mM), before slow drying, Rep 2
[7] = 3 days transport of sucrose (1%) and myo-inositol (50 mM), after 2 days slow drying, Rep 1
[8] = 3 days transport of sucrose (1%) and myo-inositol (50 mM), after 2 days slow drying, Rep 2
[9] = 3 days transport of sucrose (1%) and myo-inositol (50 mM), after 4 days slow drying, Rep 1
[10] = 3 days transport of sucrose (1%) and myo-inositol (50 mM), after 4 days slow drying, Rep 2
[11] = 3 days transport of sucrose (1%) and myo-inositol (50 mM), after 14 days slow drying, Rep 1
[12] = 3 days transport of sucrose (1%) and myo-inositol (50 mM), after 14 days slow drying, Rep 2
[13] = 3 days transport of sucrose (1%) and myo-inositol (50 mM), before slow drying, Rep 1
[14] = 3 days transport of sucrose (1%) and myo-inositol (50 mM), before slow drying, Rep 2
[15] = 3 days transport of sucrose (1%) without cyclitols, after 2 days slow drying, Rep 1
[16] = 3 days transport of sucrose (1%) without cyclitols, after 2 days slow drying, Rep 2
[17] = 3 days transport of sucrose (1%) without cyclitols, after 4 days slow drying, Rep 1
[18] = 3 days transport of sucrose (1%) without cyclitols, after 4 days slow drying, Rep 2
[19] = 3 days transport of sucrose (1%) without cyclitols, after 14 days slow drying, Rep 1
[20] = 3 days transport of sucrose (1%) without cyclitols, after 14 days slow drying, Rep 2
[21] = 3 days transport of sucrose (1%) without cyclitols, before slow drying, Rep 1
[22] = 3 days transport of sucrose (1%) without cyclitols, before slow drying, Rep 2

OCC1O[C@H](OC2C(O)[C@H](O)C(O)C(O)[C@@H]2O)C(O)C(O)[C@H]1O (stereo partly drawn) [Fagopyritol B1, α-D-galactopyranosyl-(1→2)-1D-chiro-inositol]
Accumulation of soluble carbohydrates in soybean axis [1]: 5.79 μg/axis | Accumulation of soluble carbohydrates in soybean cotyledon [1]: 51.96 μg/cotyledon | Accumulation of soluble carbohydrates in soybean seed coat [1]: 1.66 μg/seed coat | Accumulation of soluble carbohydrates in soybean axis [2]: 4.01 μg/axis | Accumulation of soluble carbohydrates in soybean cotyledon [2]: 69.76 μg/cotyledon | Accumulation of soluble carbohydrates in soybean seed coat [2]: 1.66 μg/seed coat | Accumulation of soluble carbohydrates in soybean axis [3]: 6.41 μg/axis | Accumulation of soluble carbohydrates in soybean cotyledon [3]: 29.66 μg/cotyledon | Accumulation of soluble carbohydrates in soybean seed coat [3]: 4.07 μg/seed coat | Accumulation of soluble carbohydrates in soybean axis [4]: 8.76 μg/axis | Accumulation of soluble carbohydrates in soybean cotyledon [4]: 51.85 μg/cotyledon | Accumulation of soluble carbohydrates in soybean seed coat [4]: 10.12 μg/seed coat | Accumulation of soluble carbohydrates in soybean axis [5]: 0 μg/axis | Accumulation of soluble carbohydrates in soybean cotyledon [5]: 0 μg/cotyledon | Accumulation of soluble carbohydrates in soybean axis [6]: 0 μg/axis | Accumulation of soluble carbohydrates in soybean cotyledon [6]: 3.39 μg/cotyledon | Accumulation of soluble carbohydrates in soybean axis [7]: 3.15 μg/axis | Accumulation of soluble carbohydrates in soybean cotyledons [7]: 7.36 μg/cotyledon | Accumulation of soluble carbohydrates in soybean seed coats [7]: 3.04 μg/seed coat | Accumulation of soluble carbohydrates in soybean axis [8]: 5.91 μg/axis | Accumulation of soluble carbohydrates in soybean cotyledons [8]: 14.06 μg/cotyledon | Accumulation of soluble carbohydrates in soybean seed coats [8]: 1.97 μg/seed coat | Accumulation of soluble carbohydrates in soybean axis [9]: 6.25 μg/axis | Accumulation of soluble carbohydrates in soybean cotyledons [9]: 29.15 μg/cotyledon | Accumulation of soluble carbohydrates in soybean axis [10]: 7.43 μg/axis | Accumulation of soluble carbohydrates in soybean cotyledons [10]: 86.71 μg/cotyledon | Accumulation of soluble carbohydrates in soybean seed coats [10]: 1.90 μg/seed coat | Accumulation of soluble carbohydrates in soybean axis [11]: 11.14 μg/axis | Accumulation of soluble carbohydrates in soybean cotyledons [11]: 50.31 μg/cotyledon | Accumulation of soluble carbohydrates in soybean seed coats [11]: 5.51 μg/seed coat | Accumulation of soluble carbohydrates in soybean axis [12]: 6.13 μg/axis | Accumulation of soluble carbohydrates in soybean cotyledons [12]: 49.29 μg/cotyledon | Accumulation of soluble carbohydrates in soybean seed coats [12]: 6.47 μg/seed coat | Accumulation of soluble carbohydrates in soybean axis [13]: 0 μg/axis | Accumulation of soluble carbohydrates in soybean cotyledons [13]: 0 μg/cotyledon | Accumulation of soluble carbohydrates in soybean axis [14]: 0 μg/axis | Accumulation of soluble carbohydrates in soybean cotyledons [14]: 0 μg/cotyledon | Accumulation of soluble carbohydrates in soybean axis [15]: 3.51 μg/axis | Accumulation of soluble carbohydrates in soybean cotyledon [15]: 4.72 μg/cotyledon | Accumulation of soluble carbohydrates in soybean seed coats [15]: 3.43 μg/seed coat | Accumulation of soluble carbohydrates in soybean axis [16]: 5.52 μg/axis | Accumulation of soluble carbohydrates in soybean cotyledon [16]: 13.12 μg/cotyledon | Accumulation of soluble carbohydrates in soybean seed coats [16]: 3.27 μg/seed coat | Accumulation of soluble carbohydrates in soybean axis [17]: 7.09 μg/axis | Accumulation of soluble carbohydrates in soybean cotyledon [17]: 72.21 μg/cotyledon | Accumulation of soluble carbohydrates in soybean seed coats [17]: 1.69 μg/seed coat | Accumulation of soluble carbohydrates in soybean axis [18]: 6.40 μg/axis | Accumulation of soluble carbohydrates in soybean cotyledon [18]: 62.04 μg/cotyledon | Accumulation of soluble carbohydrates in soybean seed coats [18]: 5.41 μg/seed coat | Accumulation of soluble carbohydrates in soybean axis [19]: 8.41 μg/axis | Accumulation of soluble carbohydrates in soybean cotyledon [19]: 83.93 μg/cotyledon | Accumulation of soluble carbohydrates in soybean seed coats [19]: 2.54 μg/seed coat | Accumulation of soluble carbohydrates in soybean axis [20]: 4.98 μg/axis | Accumulation of soluble carbohydrates in soybean cotyledon [20]: 57.10 μg/cotyledon | Accumulation of soluble carbohydrates in soybean seed coats [20]: 3.44 μg/seed coat | Accumulation of soluble carbohydrates in soybean axis [21]: 1.70 μg/axis | Accumulation of soluble carbohydrates in soybean cotyledon [21]: 1.89 μg/cotyledon | Accumulation of soluble carbohydrates in soybean axis [22]: 0 μg/axis | Accumulation of soluble carbohydrates in soybean cotyledon [22]: 2.10 μg/cotyledon | increase after feeding D-chiro-inositol (printed 'in seed coats' in the paragraph on axis tissues of dry seeds): 10 fold
